Laboratory results: PubChem BioAssay (EPA / NIEHS)
“And” between values parts separate entries of the source, which are not always exact repeats. Equal entries are not always repeated. Inconclusive means that the source gave no clear call. Such entries were picked first, then a sample of the others. A potency beside an inconclusive call is a rough fit, not a confirmed value. More than one record can exist for a structure, and the calls need not agree. The source made the active and inactive calls. How the source made its calls: active means hit-call score of the fitted dose curve at least 0.9, where 1 is the maximum; inconclusive means response in the unintended direction; inactive means score below 0.9.

Chains of the proteins cited; added tags and fusions are not shown.
UniProt P04637, whole entry, looked up: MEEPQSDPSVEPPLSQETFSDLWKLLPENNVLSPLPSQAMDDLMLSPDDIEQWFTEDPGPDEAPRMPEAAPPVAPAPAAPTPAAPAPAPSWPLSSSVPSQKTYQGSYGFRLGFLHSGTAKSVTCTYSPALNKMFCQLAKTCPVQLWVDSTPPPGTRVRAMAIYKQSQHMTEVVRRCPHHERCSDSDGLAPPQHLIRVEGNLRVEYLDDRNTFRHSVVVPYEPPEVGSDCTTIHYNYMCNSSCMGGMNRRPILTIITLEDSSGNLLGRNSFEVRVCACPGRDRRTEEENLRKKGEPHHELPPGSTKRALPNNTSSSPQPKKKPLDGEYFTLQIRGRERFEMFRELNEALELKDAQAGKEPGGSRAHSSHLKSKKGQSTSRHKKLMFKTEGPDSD

Tested on: not listed separately
Assay: TOX21_p53_BLA_p5_viability: Viability Assessment in the Tox21 HCT-116 p53 Agonism Beta-lactamase Assay, Phase 5 (AID 2283600)
Outline: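 HCT-116 p53 beta-lactamase reporter cells, 4000/well, were exposed to compound (pin transfer, 217-fold dilution) for 16 hours at 37C. Cellular ATP was read by CellTiter-Glo luminescence after 30 min at room temperature.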

Structure (SMILES)	AC50	outcome
CCCCCCc1ccc(O)cc1O	active: 74.9 µM	–
COc1cccc2c1C(=O)c1c(O)c3c(c(O)c1C2=O)C[C@@](O)(C(=O)CO)C[C@@H]3O[C@H]1C[C@H](N)[C@H](O)[C@H](C)O1	inconclusive: 23.5 µM and inconclusive: 23 µM	–
CC(C)=CCl	inconclusive: 46.6 µM	–
Clc1cc(Cl)c(Cl)cc1Cl	inconclusive: 85 µM	–
O=C(Cl)c1cccc(C(=O)Cl)c1	inconclusive: 0.208 µM	–
CCN=C1C=CC(=C(c2ccc(N(CC)CC)cc2)c2ccc(N(CC)CC)cc2)c2ccccc21	active: 69.4 µM	–
C=CC(=O)OCCC(=O)O	inconclusive: 46.1 µM and inconclusive: 20.7 nM	–
Clc1ccc(C(c2ccccc2Cl)C(Cl)Cl)cc1 (stereo not given)	active: 72.7 µM and active: 35.9 µM	–
O=C(Nc1cccc(C(F)(F)F)c1)c1cc(Br)cc(Br)c1O	–	inactive
CN[C@H]1CC[C@@H](c2ccc(Cl)c(Cl)c2)c2ccc(S(N)(=O)=O)cc21	active: 85.5 µM	–
CC(C)CCCCCCCOC(=O)CCCCC(=O)OCCCCCCCC(C)C	inconclusive: 46.1 µM and inconclusive: 57.6 µM	–
C[Si]1(C)O[Si](C)(C)O[Si](C)(C)O[Si](C)(C)O1	inconclusive: 0.0632 nM and inconclusive: 46.5 µM	–
CCCCCCC(=O)OCC	inconclusive: 46.1 µM	–
Cn1c(=O)cc(Oc2ccc(F)cc2F)c2cnc(NCC(C)(C)O)nc21	inconclusive: 46.1 µM	–
Cc1cc(F)ccc1-c1cc(N2CC[C@@H](O)[C@H]2CO)ncc1N(C)C(=O)C(C)(C)c1cc(C(F)(F)F)cc(C(F)(F)F)c1	active: 23.7 µM	–
Cc1ccc(C(C)C)c(O)c1	inconclusive: 37.3 µM	–
CCCCC(CC)COP(=O)(OCC(CC)CCCC)OCC(CC)CCCC (stereo not given)	inconclusive: 0.00969 µM	–
C1CCOC1	inconclusive: 47.6 µM	–

Structure (SMILES)	AC50	outcome
COc1cc(C(=O)NC2CCN(C)CC2)ccc1Nc1ncc2c(n1)N(C1CCCC1)CC(F)(F)C(=O)N2C	active: 68.8 µM	–
CNNCc1ccc(C(=O)NC(C)C)cc1	inconclusive: 46.1 µM	–
CN(C)C=O	inconclusive: 46.1 µM and inconclusive: 11.6 µM	–
[O-][n+]1ccc(Cl)cc1	inconclusive: 48 µM	–
O=C(C=Cc1ccccc1)OCCCc1ccccc1	–	inactive
Cc1ccc([N+](=O)[O-])cc1N	inconclusive: 46 µM	–
CCCOc1sc(C(=O)N2CCC(c3cc(CN)ccc3F)CC2)c(C)c1Br	active: 80.1 µM	–
CC(=O)CC(=O)Nc1ccccc1C	inconclusive: 46.1 µM	–
COc1cc(-c2nc(NC(=O)c3cc4cc(C)cc(C)c4n3CC(=O)O)sc2CCC2CCCCC2)c(OC)cc1Cl	active: 3.51 µM	–
C[C@]12C=CC(=O)C=C1CC[C@@H]1[C@@H]2[C@@H](O)C[C@@]2(C)[C@H]1CC[C@]2(O)C(=O)CO	inconclusive: 46.1 µM and inconclusive: 6.96 µM	–
CCCCOC(=O)CC(CC(=O)OCCCC)(OC(C)=O)C(=O)OCCCC	inconclusive: 46.1 µM	–
CCCCC(CC)COC(=O)CC(C(=O)OCC(CC)CCCC)S(=O)(=O)O (stereo not given)	active: 62.1 µM [middle of 4 runs]	–
CCOCCOCCOCCO	inconclusive: 7.77 nM and inconclusive: 47.4 µM	–
CC1=CC[C@@]23C[C@@H]1C(C)(C)[C@@H]2CC[C@H]3C	–	inactive
CC1=C(/C=C/C(C)=C/C=C/C(C)=C/CO)C(C)(C)CCC1	inconclusive: 23 µM	–
CCC(C)=NO	inconclusive: 46.1 µM and inconclusive: 45.5 µM	–
O=C(O)Cc1cc(I)c(Oc2ccc(O)c(I)c2)c(I)c1	active: 21.8 µM	–

Molecular target: Cellular tumor antigen p53 (Homo sapiens) (UniProt P04637)
Assay: TOX21_p53_BLA_p4_ratio: Tox21 HCT-116 p53 Agonism Beta-lactamase Assay, Ratio, Phase 4 (AID 2283601)
Outline: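 HCT-116 p53 beta-lactamase reporter cells (4000/well) preincubated 5 h, then compound (217-fold dilution of DMSO stock) for 16 h at 37C. CCF4-AM substrate added 2 h at room temperature; 460/530 nm emission ratio fitted upward versus DMSO.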

Structure (SMILES)	AC50	outcome
O=C(Nc1cccc([N+](=O)[O-])c1)c1cc2ccccc2cc1O	active: 11.6 µM	–
CCCCCCc1ccc(O)cc1O	active: 51.2 µM and active: 63.3 µM and active: 39.6 µM	–
COc1cccc2c1C(=O)c1c(O)c3c(c(O)c1C2=O)C[C@@](O)(C(=O)CO)C[C@@H]3O[C@H]1C[C@H](N)[C@H](O)[C@H](C)O1	active: 211 nM and active: 437 nM	–
CC(C)=CCl	inconclusive: 46.6 µM	inactive
Clc1cc(Cl)c(Cl)cc1Cl	inconclusive: 46.7 µM	–
O=C(Cl)c1cccc(C(=O)Cl)c1	inconclusive: 46.1 µM	–
CCN=C1C=CC(=C(c2ccc(N(CC)CC)cc2)c2ccc(N(CC)CC)cc2)c2ccccc21	active: 50 µM	–
C=CC(=O)OCCC(=O)O	inconclusive: 46.1 µM	inactive
Clc1ccc(C(c2ccccc2Cl)C(Cl)Cl)cc1 (stereo not given)	active: 82.4 µM and active: 36.6 µM	–
O=C(Nc1cccc(C(F)(F)F)c1)c1cc(Br)cc(Br)c1O	active: 3.52 µM and active: 8.65 µM	–
CN[C@H]1CC[C@@H](c2ccc(Cl)c(Cl)c2)c2ccc(S(N)(=O)=O)cc21	active: 86.1 µM	–
CC(C)CCCCCCCOC(=O)CCCCC(=O)OCCCCCCCC(C)C	inconclusive: 57.6 µM	–
C[Si]1(C)O[Si](C)(C)O[Si](C)(C)O[Si](C)(C)O1	inconclusive: 46.5 µM	inactive
OCC1CCCO1 (stereo not given)	inconclusive: 46.8 µM	–
Cn1c(=O)cc(Oc2ccc(F)cc2F)c2cnc(NCC(C)(C)O)nc21	inconclusive: 70.4 µM	–
Cc1cc(F)ccc1-c1cc(N2CC[C@@H](O)[C@H]2CO)ncc1N(C)C(=O)C(C)(C)c1cc(C(F)(F)F)cc(C(F)(F)F)c1	active: 26.4 µM	–
Cc1ccc(C(C)C)c(O)c1	active: 86.6 µM	–
CCCCC(CC)COP(=O)(OCC(CC)CCCC)OCC(CC)CCCC (stereo not given)	inconclusive: 46.1 µM and inconclusive: 46.5 µM	–

Structure (SMILES)	AC50	outcome
C1CCOC1	–	inactive
COc1cc(C(=O)NC2CCN(C)CC2)ccc1Nc1ncc2c(n1)N(C1CCCC1)CC(F)(F)C(=O)N2C	active: 0.00404 µM	–
CCCc1ccccc1	inconclusive: 46.1 µM	–
CNNCc1ccc(C(=O)NC(C)C)cc1	inconclusive: 74.7 µM	inactive
CN(C)C=O	inconclusive: 46.1 µM	–
[O-][n+]1ccc(Cl)cc1	inconclusive: 48 µM	–
O=C(C=Cc1ccccc1)OCCCc1ccccc1	–	inactive
Cc1ccc([N+](=O)[O-])cc1N	inconclusive: 46.1 µM	–
CCCOc1sc(C(=O)N2CCC(c3cc(CN)ccc3F)CC2)c(C)c1Br	active: 72.2 µM	–
CC(=O)CC(=O)Nc1ccccc1C	inconclusive: 46.1 µM and inconclusive: 46.5 µM	–
COc1cc(-c2nc(NC(=O)c3cc4cc(C)cc(C)c4n3CC(=O)O)sc2CCC2CCCCC2)c(OC)cc1Cl	active: 3.39 µM	–
C[C@]12C=CC(=O)C=C1CC[C@@H]1[C@@H]2[C@@H](O)C[C@@]2(C)[C@H]1CC[C@]2(O)C(=O)CO	inconclusive: 46.1 µM and inconclusive: 85.5 µM	–
COc1cc([C@@H]2c3cc4c(cc3[C@@H](O[C@@H]3O[C@@H]5CO[C@@H](C)O[C@H]5[C@H](O)[C@H]3O)[C@H]3COC(=O)[C@H]23)OCO4)cc(OC)c1O	active: 6.18 µM and active: 1.98 µM	–
CCCCC(CC)COC(=O)CC(C(=O)OCC(CC)CCCC)S(=O)(=O)O (stereo not given)	active: 79.2 µM [middle of 4 runs]	–
CCOCCOCCOCCO	inconclusive: 46.1 µM	–
CC1=CC[C@@]23C[C@@H]1C(C)(C)[C@@H]2CC[C@H]3C	inconclusive: 46.1 µM	–
CCC(C)=NO	inconclusive: 45.5 µM	–
O=C(O)Cc1cc(I)c(Oc2ccc(O)c(I)c2)c(I)c1	active: 3.33 µM and active: 5.61 µM	–
